In PubChem BioAssay AID2685 (National Center for Advancing Translational Sciences (NCATS), 2010):
Some of the results follow. Further columns of the screen follow, without active or inactive calls. Compounds called inactive in the main read-out are mostly missing here. Potencies come from curve fits of mixed quality, noted in brackets.

Assay: qHTS Assay for Lipid Storage Modulators in Drosophila S3 Cells;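 for cell number change: cells counted by Cell Tracker Red CMTPX staining in the red channel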
Settings: BODIPY lipid droplet fluorescence, 18-24 h; for cell number change: measured here: cell count max response, cells fed with added oleic acid
Method in brief: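 Drosophila S3 cells got compounds at several concentrations plus oleic acid (400 uM solution). Laser-scanning cytometry with 488 nm excitation read lipid droplets at 500-530 nm and cells at 575-640 nm. Percent activity was relative to 20 uM Triacsin C.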

[1] = measured here: lipid fluorescence (Fed channel) AC50, cells fed with added oleic acid
[2] = measured here: cell number channel AC50, cells fed with added oleic acid

## O=c1c2ccccc2[nH]c(=S)n1Cc1cccs1
  cell number change: 28.5%
[1]
  AC50: 9.2 µM [rising, partial curve]

## O=C(NCC1CCCO1)c1ccccc1NS(=O)(=O)c1ccc(F)cc1 (stereo unspecified)
  cell number change: 32.2%
[2]
  AC50: 29.1 µM [rising, single point]
[1]
  AC50: 25.9 µM [rising, single point]

## Cc1ccc(Oc2ncnc(N)c2[N+](=O)[O-])cc1
  cell number change: -36.4%
[2]
  AC50: 8.2 µM [falling, partial curve]
[1]
  AC50: 4.61 µM [falling, full curve]

## Cc1ccc(/C=C/S(=O)(=O)NCC(=O)OCC(=O)Nc2ccc(C(=O)N(C)C)cc2)cc1
  cell number change: 15.8%
[1]
  AC50: 29.1 µM [rising, single point]

## COc1ccc(OCC(=O)N2c3ccc(C)cc3C3CN(C)CCC32)cc1 (stereo unspecified)
[2]
  AC50: 0.164 µM [rising, single point]

## CC(NC(=O)COC(=O)c1cc(NS(=O)(=O)c2ccc(Cl)c([N+](=O)[O-])c2)ccc1O)C1CC2CCC1C2 (stereo unspecified)
  cell number change: -39.2%
[2]
  AC50: 20.6 µM [falling, partial curve]
[1]
  AC50: 13 µM [falling, partial curve]

## Cc1ccc(S(=O)(=O)CCSc2n[nH]c(=O)n2-c2ccc3c(c2)OCCO3)cc1
  cell number change: 2.19%

## COC(=O)c1c(-c2ccc(F)cc2)csc1NC(=O)c1ccco1
  cell number change: -26.6%
[1]
  AC50: 6.51 µM [rising, single point]

## CO/N=C/C(C#N)=C/c1ccc(OC)cc1
  cell number change: 10.2%

## COC(=O)c1ccc(COc2ccc(/C=N/N3CCN(C)CC3)cc2)cc1
  cell number change: -117%
[2]
  AC50: 23.1 µM [falling, partial curve, poor fit]

## COc1cccc(CN(C(=O)c2ccccc2Br)C2CCS(=O)(=O)C2)c1 (stereo unspecified)
  cell number change: -4.13%
[1]
  AC50: 29.1 µM [falling, single point]

## COC(=O)C1=C(C)NC2=C(C(=O)CC(C)(C)C2)C1c1cccc(C)n1 (stereo unspecified)
  cell number change: 4.14%

## O=C(CCCCCNC(=O)c1ccccc1)N/N=C/c1ccc(F)cc1
[2]
  AC50: 2.31 µM [rising, single point]

## O=C(Cn1ncc2c([nH]c3ccccc32)c1=O)Nc1ccc(F)cc1F
  cell number change: 29.3%
[1]
  AC50: 0.58 µM [falling, single point]

## Cc1ccc(CC(=O)Nc2ccccc2-c2ccccc2)cc1C
  cell number change: 4.6%
[1]
  AC50: 2.91 µM [rising, partial curve]

## COc1ccc(N/C=C/C(=O)c2ccc(Cl)cc2)cc1
  cell number change: -2.33%
[1]
  AC50: 29.1 µM [falling, single point]

## CCCc1cc(=O)n2[nH]c(C)c(-c3ccc(Cl)cc3)c2n1
  cell number change: -4.91%

## Cc1ccc(NC(=O)Cn2nc(C)c3ccccc3c2=O)c(C)c1
[2]
  AC50: 0.164 µM [rising, partial curve, poor fit]
[1]
  AC50: 0.00411 µM [rising, full curve, poor fit]

## O=C(COC(=O)[C@@H]1CC(O)CN1S(=O)(=O)c1ccc2c(c1)OCCO2)Nc1ccccc1F (stereo partly specified)
  cell number change: -14.2%
[2]
  AC50: 0.00461 µM [falling, full curve, poor fit]
[1]
  AC50: 0.0092 µM [falling, full curve, poor fit]

## O=C(COc1cccc2cccnc12)NCC(F)(F)F
  cell number change: -0.682%

## CCc1noc(C)c1C(=O)Nc1nc(-c2cc(C)ccc2C)c(C)s1
  cell number change: -22.2%

## Cc1cc(NC(=O)COn2nnc3ccc(Cl)cc32)no1
  cell number change: 28.4%

## Cc1ccccc1OCc1nnc(SCC(=O)O)n1-c1cccc(Cl)c1
  cell number change: 7.61%
[1]
  AC50: 29.1 µM [rising, single point]

## COc1ccc(Cc2nc3ccc(C(=O)N4CCC(N(C)C)C4)cc3o2)cc1 (stereo unspecified)
  cell number change: 14.4%

## NS(=O)(=O)c1ccc(CNC(=O)CCSCCC(=O)NCc2ccc(S(N)(=O)=O)cc2)cc1
  cell number change: 20.3%
[1]
  AC50: 13 µM [rising, partial curve, poor fit]

## Cc1ccc(NS(=O)(=O)c2ccc3c(c2)OCCCO3)cc1S(=O)(=O)N1CCOCC1
  cell number change: 15.4%
[1]
  AC50: 0.82 µM [falling, full curve, poor fit]

## COC(=O)N/N=C/c1ccccc1OCc1ccccc1
  cell number change: -83.3%
[2]
  AC50: 4.11 µM [falling, full curve]

## Cc1nc2ccc(C(=O)OCc3nnc(-c4ccc(Br)cc4)o3)cc2nc1C
  cell number change: 11.9%

## O=C(COc1ccc2ccccc2c1)NC1CC1
[1]
  AC50: 6.51 µM [rising, single point]

## Nc1c(N(Cc2ccccc2)C(=O)COc2ccc(F)cc2)c(=O)[nH]c(=O)n1Cc1ccccc1
[1]
  AC50: 0.58 µM [rising, single point]

## CCN1CCN(c2ccc(S(=O)(=O)N3CCCCC3)cc2NC(=O)c2cccc(C(F)(F)F)c2)CC1
  cell number change: 5.66%
[1]
  AC50: 18.4 µM [rising, single point]

## COc1ccc(-c2noc(N3CCC(C(=O)NCCCN4CCC(C)CC4)CC3)n2)cc1
  cell number change: 2.31%
[1]
  AC50: 25.9 µM [rising, single point]

## CCn1ncc(CNC(=O)C2(C)CC2(Br)Br)c1C (stereo unspecified)
  cell number change: -2.49%
[1]
  AC50: 0.0326 µM [falling, full curve, poor fit]

## Cc1nc2ccccc2c(=O)n1NC(=O)c1ccc(F)cc1Cl
  cell number change: -2.3%

## COC(=O)[C@@H]1Cc2c([nH]c3ccccc23)C(C)(C)N1C(=O)CCl
  cell number change: -19.9%
[1]
  AC50: 0.0146 µM [falling, single point]

## Cc1nnc(NC(=O)c2ccc3c(c2)C(=O)N(CC2CCCO2)C3=O)s1 (stereo unspecified)
  cell number change: 9.55%
[2]
  AC50: 0.164 µM [falling, partial curve]
[1]
  AC50: 1.16 µM [falling, single point]

## COc1ccc(NC(=O)CN2C(=O)c3ccccc3S2(=O)=O)cc1OC
  cell number change: 48.4%
[2]
  AC50: 29.1 µM [rising, single point]

## Cc1ccc(C)c(S(=O)(=O)/N=C2\C=C(NS(=O)(=O)c3ccccc3)C(=O)c3ccccc32)c1
  cell number change: -17.9%
[1]
  AC50: 5.17 µM [falling, single point]

## O=[n+]1cc(-c2ccc(Cl)cc2)n([O-])c2c1CCCCC2
  cell number change: 4.34%

## CCOc1ccc(Nc2nc(N)c([N+](=O)[O-])c(N3CCN(C)CC3)n2)cc1
  cell number change: 36%
[2]
  AC50: 29.1 µM [rising, single point]
[1]
  AC50: 6.51 µM [falling, single point]
